Reference: patent publication US20190070163A1, “ANTITUMOR AGENT” (TOCHIGI INSTITUTE OF CLINICAL PATHOLOGY, priority 2013, published 2019)
At least one structure is not confirmed: it was looked up by name or label, or the drawing left a doubt.

Tested on: spontaneously developed mammary gland tumors (adenocarcinoma and adenoma)
Assay: Therapeutic effect on tumor-bearing rats; light and electron microscopy of removed tumor tissues
Assay type: in vivo, Sprague-Dawley rats
Settings: for apoptosis of smooth muscle cells in the tumor site: electron micrographs FIGS. 12 to 15; for degeneration of axons of peripheral nerve cells in the tumor site / degeneration of myelin sheaths of peripheral nerve cells in the tumor site: electron micrographs FIGS. 16 to 19; for stage of apoptosis of endothelial cells (irregular condensation and fragmentation of nuclei): staging per Ihara et al. 1998; for apoptosis in the tumor cells / inhibitory effect on the development and the growth of the tumor cells: tumor-bearing rats, oral daily (montelukast sodium 0.16, zafirlukast 1.33, pranlukast hydrate 7.5, zileuton 34.3 mg/kg), vs untreated
Source text: Sprague-Dawley rats which had spontaneously developed a tumor during breeding (hereinafter referred to as tumor-bearing rats) were purchased from Charles River Japan, Inc., and used for experiments. Tumors observed were all mammary gland tumors (adenocarcinoma and adenoma). All of these were spontaneous tumors, and the rats were cancer-bearing animals having various conditions of tumorigenesis including carcinogenic factors in mammals including human.
Under ether anesthetization, tumor tissues were removed from tumor-bearing rats. The removed tumors were fixed, and thereafter samples for light microscopy (hematoxylin-eosin staining) and samples for electron microscopy (uranium-lead double staining) were prepared and observed.
To tumor-bearing rats, a leukotriene inhibitor containing montelukast sodium as an active ingredient (leukotriene receptor antagonist; trade name “Singulair Tablets”; manufactured by MSD K. K.) was orally administered for up to 7 days at a daily dose of 0.16 mg/kg body weight in terms of montelukast sodium. On Day 3 and Day 7, tumor tissues were removed under ether anesthetization. In the same manner as in Comparative Example 1, the removed tumors were fixed, and thereafter samples for light microscopy (hematoxylin-eosin staining) and samples for electron microscopy (uranium-lead double staining) were prepared and observed.
To tumor-bearing rats, a leukotriene inhibitor containing zafirlukast as an active ingredient (leukotriene receptor antagonist; trade name “Accolate”; manufactured by AstraZeneca K. K.) was orally administered for up to 7 days at a daily dose of 1.33 mg/kg body weight in terms of zafirlukast. On Day 3 and Day 7, tumor tissues were removed under ether anesthetization. In the same manner as in Comparative Example 1, the removed tumors were fixed, and thereafter samples for light microscopy (hematoxylin-eosin staining) and samples for electron microscopy (uranium-lead double staining) were prepared and observed.
To tumor-bearing rats, a leukotriene inhibitor containing pranlukast hydrate as an active ingredient (leukotriene receptor antagonist; trade name “Onon”; manufactured by Ono Pharmaceutical Co., Ltd.) was orally administered for up to 7 days at a daily dose of 7.5 mg/kg body weight in terms of pranlukast hydrate. On Day 3 and Day 7, tumor tissues were removed under ether anesthetization. In the same manner as in Comparative Example 1, the removed tumors were fixed, and thereafter samples for light microscopy (hematoxylin-eosin staining) and samples for electron microscopy (uranium-lead double staining) were prepared and observed.
To tumor-bearing rats, a leukotriene inhibitor containing zileuton as an active ingredient (leukotriene biosynthesis inhibitor; trade name “ZYFLO”; manufactured by Abbott Laboratories) was orally administered for up to 7 days at a daily dose of 34.3 mg/kg body weight in terms of zileuton. On Day 3 and Day 7, tumor tissues were removed under ether anesthetization. In the same manner as in Comparative Example 1, the removed tumors were fixed, and thereafter samples for light microscopy (hematoxylin-eosin staining) and samples for electron microscopy (uranium-lead double staining) were prepared and observed.

[1] = oral, dosing period 3 days, electron micrographs

Row | SMILES | apoptosis of smooth muscle cells in the tumor site (oral, dosing period 3 days) | degeneration of axons of peripheral nerve cells in the tumor site (oral, dosing period 3 days) | degeneration of myelin sheaths of peripheral nerve cells in the tumor site (oral, dosing period 3 days) | stage of apoptosis of endothelial cells (irregular condensation and fragmentation of nuclei) [1] | apoptosis in the tumor cells | inhibitory effect on the development and the growth of the tumor cells | effect to inhibit stromal hyperplasia (oral, dosing period 3 days) | collagen fibers in tumor tissue [1]
1 | O=C(Nc1cccc2c(=O)cc(-c3nnn[nH]3)oc12)c1ccc(OCCCCc2ccccc2)cc1 [pranlukast hydrate] | apoptosis of a smooth muscle cell | vacuolation and degeneration of an axon | degeneration of a myelin sheath | Stage II to III | apoptosis was already induced on as early as Day 3 | remarkable inhibitory effect |  | 
2 | CC(C)(O)c1ccccc1CC[C@@H](SCC1(CC(=O)O)CC1)c1cccc(/C=C/c2ccc3ccc(Cl)cc3n2)c1 [montelukast sodium] | apoptosis of a smooth muscle cell | vacuolation and degeneration of an axon | degeneration of a myelin sheath | Stage II to III | apoptosis was already induced on as early as Day 3 | remarkable inhibitory effect | an effect to inhibit stromal hyperplasia was also seen | reduction in collagen fibers
